According to PMC8137473, “Preclinical trial of a MAP4K4 inhibitor to reduce infarct size in the pig: does cardioprotection in human stem cell-derived myocytes predict success in large mammals?” (Basic Research in Cardiology, 2021):

System: porcine model of MI
Test: efficacy study: convertible ventricular fibrillation and defibrillation
Assay type: in vivo, swine
Description: Investigators involved in the experimental protocol and analysis of the data were blinded to the treatment status of each pig. Animals were randomly assigned to the treatment groups in two blocks, using a random number series generated online. To control further for potential investigator bias, inclusion and exclusion criteria were formulated prior to the onset of the study. Only healthy pigs weighing 38–48 kg, with a body temperature between 37.0 and 40.0 °C at the start of surgical preparation, were included. Exclusion criteria were: (i) Encountering ventricular fibrillation (VF) during the experimental protocol that could not be converted to sinus rhythm within 2 min. (ii) Encountering VF > 4 times before starting the drug or vehicle infusion. (iii) Developing progressive pump failure (mean arterial pressure (MAP) < 30 mmHg) during first 30 min of reperfusion. (iv) Incomplete coronary artery occlusion (CAO) at the end of occlusion, verified by contrast dye injection. (v) Aberrant anatomy, producing technical difficulties that prevented successful catheterization. (vi) AAR < 15% of the LV. […] This was not foreseen in the initial design of the exclusion criteria and was not then an exclusion criterion. However, in view of the risk of preconditioning the heart during this episode of VF, we chose to stop the procedure and add the further criterion “Encountering VF prior to the onset of the ischemia–reperfusion protocol.” Following any exclusions as above, modifications were made where necessary to ensure that the two treatment groups remained appropriately balanced for sex and weight. […]
The LAD was catheterized with a standard clinical guiding catheter (JL3.5, 6F, Medtronic, Minneapolis, MN), and quantitative coronary angiography (CAAS, PIE Medical, Maastricht, The Netherlands) was performed following 2 mg isosorbidedinitrate (Cedocard, Nycomed, Hoofddorp, The Netherlands) and using iodixanol as contrast agent (Visipaque™, GE Healthcare BV, Eindhoven, The Netherlands). […] Heart rate, aortic blood pressure, and ECG were monitored until 2 h of reperfusion.

For `COCCOc1ccc(-c2cn(-c3ccccc3)c3ncn(COP(=O)(O)O)c(=O)c23)cc1` [DMX-10001], the “Convertible VF, No. of defibrillation shocks” value (Occlusion 0-40 min) was 3.1 ± 1.6, the “Convertible VF, No. of episodes” value (Occlusion 0-40 min) was 1.0 ± 0.0 and the “time within which sinus rhythm was restored” value (VF during CAO, prior to treatment) was 69 ± 34 s.
